# Where a name gives a salt, the structure may show the parent alone. Read-outs that look alike come from different tables or passages of the source.
# Experiment: Comparative study of various acids with a crude glycerol phase (acidification to pH about 4)
# [1] = acid added until pH about 4, relative to mass of crude glycerol phase (40 g)
# [2] = acidification of crude glycerol phase to pH about 4
# [3] = glycerol enriched phase after acidification and decanting
Compound,added quantity [1],"ΔT (exotherm, increase of the temperature of the reaction mixture) [2]",IA (acid number of the glycerol enriched phase) [3],IA (acid number of the glycerol enriched phase),added quantity,"ΔT (exotherm, increase of the temperature of the reaction mixture)"
"CC(=O)O [AAc, acetic acid]",15.0 weight %,2 °C,92 mg of KOH/g,–,–,–
"O=C(O)CC(O)(CC(=O)O)C(=O)O [ACi, citric acid]",19.5 weight %,8 °C,37 mg of KOH/g,–,–,–
"O=S(=O)(O)O [H2SO4, sulfuric acid]",–,–,–,2 mg of KOH/g,4.5 weight %,12 °C
"O=P(O)(O)O [H3PO4, phosphoric acid]",11.3 weight %,6 °C,61 mg of KOH/g,–,–,–
"Cl [HCl, hydrochloric acid]",9.3 weight %,8 °C,2 mg of KOH/g,–,–,–
"CS(=O)(=O)O [MSA, methane sulfonic acid]",11.5 weight %,6 °C,1 mg of KOH/g,–,–,–

# Reference: patent US9018425B2, “Use of sulfonic acid for recovering glycerol resulting from the triglyceride transesterification reaction” (Arkema France, priority 2013, dated 2015)
